The values that follow come from US20220306695A1, “COMPSTATIN ANALOGUES AND THEIR MEDICAL USES” (priority 2019, published 2022).

Protein sequences, listed by entry. Tags and fused reporters are not part of them. Residues count along the entry.
UniProt P01024, residues 23-1663: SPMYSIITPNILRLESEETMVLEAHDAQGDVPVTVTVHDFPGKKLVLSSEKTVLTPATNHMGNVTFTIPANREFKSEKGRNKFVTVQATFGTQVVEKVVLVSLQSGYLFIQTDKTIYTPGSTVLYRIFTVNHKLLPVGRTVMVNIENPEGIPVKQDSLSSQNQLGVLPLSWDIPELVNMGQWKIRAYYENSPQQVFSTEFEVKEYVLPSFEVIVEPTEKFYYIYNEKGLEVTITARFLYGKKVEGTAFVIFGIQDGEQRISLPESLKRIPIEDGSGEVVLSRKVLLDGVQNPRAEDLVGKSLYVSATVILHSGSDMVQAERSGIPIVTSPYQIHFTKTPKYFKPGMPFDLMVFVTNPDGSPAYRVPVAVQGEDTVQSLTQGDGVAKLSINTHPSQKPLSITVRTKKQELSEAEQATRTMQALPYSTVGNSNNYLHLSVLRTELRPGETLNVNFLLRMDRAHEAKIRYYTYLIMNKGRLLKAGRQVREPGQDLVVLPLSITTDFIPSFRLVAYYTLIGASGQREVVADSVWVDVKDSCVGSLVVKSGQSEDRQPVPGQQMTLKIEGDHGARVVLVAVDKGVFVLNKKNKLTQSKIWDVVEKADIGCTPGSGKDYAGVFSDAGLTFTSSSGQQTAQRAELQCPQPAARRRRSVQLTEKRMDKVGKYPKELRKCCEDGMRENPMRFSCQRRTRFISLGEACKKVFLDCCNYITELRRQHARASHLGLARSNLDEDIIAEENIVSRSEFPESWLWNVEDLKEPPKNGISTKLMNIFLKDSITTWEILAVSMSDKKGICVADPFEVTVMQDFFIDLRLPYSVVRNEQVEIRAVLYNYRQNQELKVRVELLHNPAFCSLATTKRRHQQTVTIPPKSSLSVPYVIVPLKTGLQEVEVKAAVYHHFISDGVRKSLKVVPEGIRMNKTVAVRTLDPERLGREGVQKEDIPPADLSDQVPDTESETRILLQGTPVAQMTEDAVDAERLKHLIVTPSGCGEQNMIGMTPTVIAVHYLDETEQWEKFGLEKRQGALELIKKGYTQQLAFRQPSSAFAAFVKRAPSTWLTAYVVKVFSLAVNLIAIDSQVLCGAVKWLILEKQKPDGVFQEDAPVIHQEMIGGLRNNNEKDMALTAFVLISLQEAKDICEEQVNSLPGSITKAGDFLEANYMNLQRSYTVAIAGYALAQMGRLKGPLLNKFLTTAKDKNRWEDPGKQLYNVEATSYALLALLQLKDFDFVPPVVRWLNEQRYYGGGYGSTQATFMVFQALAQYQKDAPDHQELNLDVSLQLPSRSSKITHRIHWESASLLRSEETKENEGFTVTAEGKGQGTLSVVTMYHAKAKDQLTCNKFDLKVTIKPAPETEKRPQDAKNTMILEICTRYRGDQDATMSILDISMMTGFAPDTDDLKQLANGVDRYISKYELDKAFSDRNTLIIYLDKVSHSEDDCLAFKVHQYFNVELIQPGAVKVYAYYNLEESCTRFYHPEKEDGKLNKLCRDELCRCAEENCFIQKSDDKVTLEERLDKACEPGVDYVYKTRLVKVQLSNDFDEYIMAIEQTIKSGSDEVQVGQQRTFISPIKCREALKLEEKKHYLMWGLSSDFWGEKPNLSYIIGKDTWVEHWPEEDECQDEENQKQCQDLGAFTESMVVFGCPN

Results are given in words; binding and its absence hold for the method and conditions named. Some entries that bind do so weakly or less than the wild type.

The target of the test is Human C3 (human, UniProt P01024 23-1663). The experiment in a line: told in the text of Example 5; method not given.

Regarding FCIWQDWGEHRCTGAES (N-acetyl; C-terminal amide; disulfide C2-C12; W4 is 1-Me-Trp) [Compound 61], the binding result was “binds”.
